From publication PMC12196856 come the findings set out here.

The test system of data set [1] is LpBLH3 (Lilium pumilum). In words: EMSA. To be noted: BeyoGold Chemiluminescent EMSA Kit (Beyotime), manufacturer's protocol; recombinant protein; protein details: His (pET21a); label: 5' biotin.
Data set [2] relates to LpBLH3 (Lilium pumilum). In words: competition with a labelled probe. To be noted: competes against biotin-labeled N1; BeyoGold Chemiluminescent EMSA Kit (Beyotime), manufacturer's protocol; recombinant protein; protein details: His (pET21a). In general terms: A gel shift assay detects complexes by their altered migration in electrophoresis.

For at least one entry, the source does not settle the construct or the ends of the probe.

In the case of “TGAAAACATGGACGATTATATACCTCCATTTGTCAAATTG (double strand) [LpABI5-TGGA probe]”, the binding result with LpBLH3 (Lilium pumilum) [1] was “binds”.

“TGAAAACATGGACGATTATATACCTCCATTTGTCAAATTG (double strand) [LpABI5-TGGA unlabeled competitor]”: the binding result in the data set on LpBLH3 (Lilium pumilum) [2] is on record as “binds”.
